One assay concerns the target T1, GST-EB1, Q15691.
T1 chain: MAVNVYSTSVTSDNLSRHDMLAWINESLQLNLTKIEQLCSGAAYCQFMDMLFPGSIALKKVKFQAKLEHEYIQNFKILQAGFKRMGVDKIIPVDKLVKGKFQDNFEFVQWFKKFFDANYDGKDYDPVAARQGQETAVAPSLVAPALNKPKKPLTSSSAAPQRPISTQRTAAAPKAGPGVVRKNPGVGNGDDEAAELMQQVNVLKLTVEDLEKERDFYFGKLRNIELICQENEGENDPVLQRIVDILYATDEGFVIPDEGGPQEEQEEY
The assay can be described thus: pull-down; GST-EB1 as affinity matrix to isolate GFP fusions from 293T cell extracts; anti-GFP blotting and Coomassie Brilliant Blue staining; only the target purified. To be noted: remark: other sources report otherwise.

Chains of the proteins cited; added tags and fusions are not shown. Lines headed by an entry give the natural chain unless they say otherwise; changes in a name come on top.
UniProt P68363: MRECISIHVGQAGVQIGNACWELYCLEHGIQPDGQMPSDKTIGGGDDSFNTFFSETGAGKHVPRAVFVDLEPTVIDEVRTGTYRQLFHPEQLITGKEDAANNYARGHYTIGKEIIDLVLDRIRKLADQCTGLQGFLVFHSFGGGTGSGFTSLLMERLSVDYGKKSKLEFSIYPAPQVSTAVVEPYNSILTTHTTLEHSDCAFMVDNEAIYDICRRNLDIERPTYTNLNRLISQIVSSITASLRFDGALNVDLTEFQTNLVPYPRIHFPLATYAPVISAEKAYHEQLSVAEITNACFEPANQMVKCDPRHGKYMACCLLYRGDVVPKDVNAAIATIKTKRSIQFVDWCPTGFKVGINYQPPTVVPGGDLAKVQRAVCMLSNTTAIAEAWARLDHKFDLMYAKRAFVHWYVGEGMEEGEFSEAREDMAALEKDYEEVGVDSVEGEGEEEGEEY

A further assay concerns the target GST-EB1 (UniProt Q15691). The assay is described as above.
Assay [1] addresses Taxol-stabilized microtubules (UniProt P68363). The assay can be described thus: co-sedimentation; 1 uM purified MCAK-His proteins with 0-10 uM Taxol-stabilized MTs in BRB80 (80 mM PIPES pH 6.8, 1 mM MgCl2, 1 mM EGTA), 10 min at 25 C, 10 min at 80,000 rpm; supernatant and pellet on SDS-PAGE, densitometry; both purified.

These are yes or no findings as the source states them, for the method shown. For part of these data: In cells and extracts the contact can be indirect. Some entries that bind do so weakly or less than the wild type. Where a sequence is shown, tags or fusion partners need not be part of it.

B1: GFP-tagged full-length MCAK (wild type), Q99661 1-725 (protein)
chain: MAMDSSLQARLFPGLAIKIQRSNGLIHSANVRTVNLEKSCVSVEWAEGGATKGKEIDFDDVAAINPELLQLLPLHPKDNLPLQENVTIQKQKRRSVNSKIPAPKESLRSRSTRMSTVSELRITAQENDMEVELPAAANSRKQFSVPPAPTRPSCPAVAEIPLRMVSEEMEEQVHSIRGSSSANPVNSVRRKSCLVKEVEKMKNKREEKKAQNSEMRMKRAQEYDSSFPNWEFARMIKEFRATLECHPLTMTDPIEEHRICVCVRKRPLNKQELAKKEIDVISIPSKCLLLVHEPKLKVDLTKYLENQAFCFDFAFDETASNEVVYRFTARPLVQTIFEGGKATCFAYGQTGSGKTHTMGGDLSGKAQNASKGIYAMASRDVFLLKNQPCYRKLGLEVYVTFFEIYNGKLFDLLNKKAKLRVLEDGKQQVQVVGLQEHLVNSADDVIKMIDMGSACRTSGQTFANSNSSRSHACFQIILRAKGRMHGKFSLVDLAGNERGADTSSADRQTRMEGAEINKSLLALKECIRALGQNKAHTPFRESKLTQVLRDSFIGENSRTCMIATISPGISSCEYTLNTLRYADRVKELSPHSGPSGEQLIQMETEEMEACSNGALIPGNLSKEEEELSSQMSSFNEAMTQIRELEEKAMEELKEIIQQGPDWLELSEMTEQPDYDLETFVNKAESALAQQAKHFSALRDVIKALRLAMQLEEQASRQISSKKRPQ
As for B1, in the assay with GST-EB1, Q15691, the binding entry is given as “binds”.

B2: GFP-MCAK^S715A (protein, UniProt Q99661 1-725)
chain: MAMDSSLQARLFPGLAIKIQRSNGLIHSANVRTVNLEKSCVSVEWAEGGATKGKEIDFDDVAAINPELLQLLPLHPKDNLPLQENVTIQKQKRRSVNSKIPAPKESLRSRSTRMSTVSELRITAQENDMEVELPAAANSRKQFSVPPAPTRPSCPAVAEIPLRMVSEEMEEQVHSIRGSSSANPVNSVRRKSCLVKEVEKMKNKREEKKAQNSEMRMKRAQEYDSSFPNWEFARMIKEFRATLECHPLTMTDPIEEHRICVCVRKRPLNKQELAKKEIDVISIPSKCLLLVHEPKLKVDLTKYLENQAFCFDFAFDETASNEVVYRFTARPLVQTIFEGGKATCFAYGQTGSGKTHTMGGDLSGKAQNASKGIYAMASRDVFLLKNQPCYRKLGLEVYVTFFEIYNGKLFDLLNKKAKLRVLEDGKQQVQVVGLQEHLVNSADDVIKMIDMGSACRTSGQTFANSNSSRSHACFQIILRAKGRMHGKFSLVDLAGNERGADTSSADRQTRMEGAEINKSLLALKECIRALGQNKAHTPFRESKLTQVLRDSFIGENSRTCMIATISPGISSCEYTLNTLRYADRVKELSPHSGPSGEQLIQMETEEMEACSNGALIPGNLSKEEEELSSQMSSFNEAMTQIRELEEKAMEELKEIIQQGPDWLELSEMTEQPDYDLETFVNKAESALAQQAKHFSALRDVIKALRLAMQLEEQAARQISSKKRPQ
For B2, the binding entry in the assay with GST-EB1 was “binds”.

B3: MCAK^S715E-His (protein, UniProt Q99661 1-725)
chain: MAMDSSLQARLFPGLAIKIQRSNGLIHSANVRTVNLEKSCVSVEWAEGGATKGKEIDFDDVAAINPELLQLLPLHPKDNLPLQENVTIQKQKRRSVNSKIPAPKESLRSRSTRMSTVSELRITAQENDMEVELPAAANSRKQFSVPPAPTRPSCPAVAEIPLRMVSEEMEEQVHSIRGSSSANPVNSVRRKSCLVKEVEKMKNKREEKKAQNSEMRMKRAQEYDSSFPNWEFARMIKEFRATLECHPLTMTDPIEEHRICVCVRKRPLNKQELAKKEIDVISIPSKCLLLVHEPKLKVDLTKYLENQAFCFDFAFDETASNEVVYRFTARPLVQTIFEGGKATCFAYGQTGSGKTHTMGGDLSGKAQNASKGIYAMASRDVFLLKNQPCYRKLGLEVYVTFFEIYNGKLFDLLNKKAKLRVLEDGKQQVQVVGLQEHLVNSADDVIKMIDMGSACRTSGQTFANSNSSRSHACFQIILRAKGRMHGKFSLVDLAGNERGADTSSADRQTRMEGAEINKSLLALKECIRALGQNKAHTPFRESKLTQVLRDSFIGENSRTCMIATISPGISSCEYTLNTLRYADRVKELSPHSGPSGEQLIQMETEEMEACSNGALIPGNLSKEEEELSSQMSSFNEAMTQIRELEEKAMEELKEIIQQGPDWLELSEMTEQPDYDLETFVNKAESALAQQAKHFSALRDVIKALRLAMQLEEQAERQISSKKRPQ
For B3, in assay [1], the binding entry is “binds”.

B4: MCAK^WT-His (protein, UniProt Q99661 1-725)
chain: MAMDSSLQARLFPGLAIKIQRSNGLIHSANVRTVNLEKSCVSVEWAEGGATKGKEIDFDDVAAINPELLQLLPLHPKDNLPLQENVTIQKQKRRSVNSKIPAPKESLRSRSTRMSTVSELRITAQENDMEVELPAAANSRKQFSVPPAPTRPSCPAVAEIPLRMVSEEMEEQVHSIRGSSSANPVNSVRRKSCLVKEVEKMKNKREEKKAQNSEMRMKRAQEYDSSFPNWEFARMIKEFRATLECHPLTMTDPIEEHRICVCVRKRPLNKQELAKKEIDVISIPSKCLLLVHEPKLKVDLTKYLENQAFCFDFAFDETASNEVVYRFTARPLVQTIFEGGKATCFAYGQTGSGKTHTMGGDLSGKAQNASKGIYAMASRDVFLLKNQPCYRKLGLEVYVTFFEIYNGKLFDLLNKKAKLRVLEDGKQQVQVVGLQEHLVNSADDVIKMIDMGSACRTSGQTFANSNSSRSHACFQIILRAKGRMHGKFSLVDLAGNERGADTSSADRQTRMEGAEINKSLLALKECIRALGQNKAHTPFRESKLTQVLRDSFIGENSRTCMIATISPGISSCEYTLNTLRYADRVKELSPHSGPSGEQLIQMETEEMEACSNGALIPGNLSKEEEELSSQMSSFNEAMTQIRELEEKAMEELKEIIQQGPDWLELSEMTEQPDYDLETFVNKAESALAQQAKHFSALRDVIKALRLAMQLEEQASRQISSKKRPQ
Regarding B4, the binding result in assay [1] is “binds”.

B5: GFP-MCAK^S715E (protein, UniProt Q99661 1-725)
chain: MAMDSSLQARLFPGLAIKIQRSNGLIHSANVRTVNLEKSCVSVEWAEGGATKGKEIDFDDVAAINPELLQLLPLHPKDNLPLQENVTIQKQKRRSVNSKIPAPKESLRSRSTRMSTVSELRITAQENDMEVELPAAANSRKQFSVPPAPTRPSCPAVAEIPLRMVSEEMEEQVHSIRGSSSANPVNSVRRKSCLVKEVEKMKNKREEKKAQNSEMRMKRAQEYDSSFPNWEFARMIKEFRATLECHPLTMTDPIEEHRICVCVRKRPLNKQELAKKEIDVISIPSKCLLLVHEPKLKVDLTKYLENQAFCFDFAFDETASNEVVYRFTARPLVQTIFEGGKATCFAYGQTGSGKTHTMGGDLSGKAQNASKGIYAMASRDVFLLKNQPCYRKLGLEVYVTFFEIYNGKLFDLLNKKAKLRVLEDGKQQVQVVGLQEHLVNSADDVIKMIDMGSACRTSGQTFANSNSSRSHACFQIILRAKGRMHGKFSLVDLAGNERGADTSSADRQTRMEGAEINKSLLALKECIRALGQNKAHTPFRESKLTQVLRDSFIGENSRTCMIATISPGISSCEYTLNTLRYADRVKELSPHSGPSGEQLIQMETEEMEACSNGALIPGNLSKEEEELSSQMSSFNEAMTQIRELEEKAMEELKEIIQQGPDWLELSEMTEQPDYDLETFVNKAESALAQQAKHFSALRDVIKALRLAMQLEEQAERQISSKKRPQ
On to B5, for which the binding result with GST-EB1 was “binds”.

B6: MCAK^S715A-His (protein, UniProt Q99661 1-725)
chain: MAMDSSLQARLFPGLAIKIQRSNGLIHSANVRTVNLEKSCVSVEWAEGGATKGKEIDFDDVAAINPELLQLLPLHPKDNLPLQENVTIQKQKRRSVNSKIPAPKESLRSRSTRMSTVSELRITAQENDMEVELPAAANSRKQFSVPPAPTRPSCPAVAEIPLRMVSEEMEEQVHSIRGSSSANPVNSVRRKSCLVKEVEKMKNKREEKKAQNSEMRMKRAQEYDSSFPNWEFARMIKEFRATLECHPLTMTDPIEEHRICVCVRKRPLNKQELAKKEIDVISIPSKCLLLVHEPKLKVDLTKYLENQAFCFDFAFDETASNEVVYRFTARPLVQTIFEGGKATCFAYGQTGSGKTHTMGGDLSGKAQNASKGIYAMASRDVFLLKNQPCYRKLGLEVYVTFFEIYNGKLFDLLNKKAKLRVLEDGKQQVQVVGLQEHLVNSADDVIKMIDMGSACRTSGQTFANSNSSRSHACFQIILRAKGRMHGKFSLVDLAGNERGADTSSADRQTRMEGAEINKSLLALKECIRALGQNKAHTPFRESKLTQVLRDSFIGENSRTCMIATISPGISSCEYTLNTLRYADRVKELSPHSGPSGEQLIQMETEEMEACSNGALIPGNLSKEEEELSSQMSSFNEAMTQIRELEEKAMEELKEIIQQGPDWLELSEMTEQPDYDLETFVNKAESALAQQAKHFSALRDVIKALRLAMQLEEQAARQISSKKRPQ
On to B6, for which, in assay [1], the binding entry is “binds”.
